Reference: publication PMC6294489, “Structural basis for receptor-regulated SMAD recognition by MAN1” (Nucleic Acids Research, 2018)
Changes are numbered by the printed parent chain. No constants are given. Whether binding was seen depends on the method and setting. In cells and extracts the contact can be indirect. Some entries that bind do so weakly or less than the wild type. Sequences can lack the tags named with a protein.

Chains of the proteins cited; added tags and fusions are not shown. Lines headed by an entry give the natural chain unless they say otherwise; changes in a name come on top. A line that says so, or that is headed by a name, gives the form on record, which may keep a tag or linker.
Flag-SMAD1E (full-length) (Q15797-1, form named): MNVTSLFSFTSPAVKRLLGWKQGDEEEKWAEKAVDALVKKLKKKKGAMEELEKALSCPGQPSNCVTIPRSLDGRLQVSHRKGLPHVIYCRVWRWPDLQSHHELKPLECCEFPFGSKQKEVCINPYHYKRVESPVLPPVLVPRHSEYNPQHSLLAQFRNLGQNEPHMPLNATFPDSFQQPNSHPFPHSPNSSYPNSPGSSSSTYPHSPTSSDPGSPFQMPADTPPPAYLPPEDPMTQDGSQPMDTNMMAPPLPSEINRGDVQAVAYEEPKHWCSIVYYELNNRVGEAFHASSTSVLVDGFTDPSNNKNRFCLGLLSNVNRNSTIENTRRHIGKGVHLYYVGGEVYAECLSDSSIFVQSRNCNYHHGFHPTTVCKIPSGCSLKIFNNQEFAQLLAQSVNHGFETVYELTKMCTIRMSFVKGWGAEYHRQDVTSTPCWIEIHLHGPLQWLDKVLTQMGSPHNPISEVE

What was measured:
Assay in all cases: co-IP; HEK293 cells transfected with HA-MAN1 and Flag-SMAD vectors, lysed 48 h later; immunoprecipitation with anti-HA (3F10), detection with anti-Flag (M2)
[1] = biological target: T1, HA-MAN1 (full-length) L860A (human) (UniProt Q9Y2U8)
T1 sequence: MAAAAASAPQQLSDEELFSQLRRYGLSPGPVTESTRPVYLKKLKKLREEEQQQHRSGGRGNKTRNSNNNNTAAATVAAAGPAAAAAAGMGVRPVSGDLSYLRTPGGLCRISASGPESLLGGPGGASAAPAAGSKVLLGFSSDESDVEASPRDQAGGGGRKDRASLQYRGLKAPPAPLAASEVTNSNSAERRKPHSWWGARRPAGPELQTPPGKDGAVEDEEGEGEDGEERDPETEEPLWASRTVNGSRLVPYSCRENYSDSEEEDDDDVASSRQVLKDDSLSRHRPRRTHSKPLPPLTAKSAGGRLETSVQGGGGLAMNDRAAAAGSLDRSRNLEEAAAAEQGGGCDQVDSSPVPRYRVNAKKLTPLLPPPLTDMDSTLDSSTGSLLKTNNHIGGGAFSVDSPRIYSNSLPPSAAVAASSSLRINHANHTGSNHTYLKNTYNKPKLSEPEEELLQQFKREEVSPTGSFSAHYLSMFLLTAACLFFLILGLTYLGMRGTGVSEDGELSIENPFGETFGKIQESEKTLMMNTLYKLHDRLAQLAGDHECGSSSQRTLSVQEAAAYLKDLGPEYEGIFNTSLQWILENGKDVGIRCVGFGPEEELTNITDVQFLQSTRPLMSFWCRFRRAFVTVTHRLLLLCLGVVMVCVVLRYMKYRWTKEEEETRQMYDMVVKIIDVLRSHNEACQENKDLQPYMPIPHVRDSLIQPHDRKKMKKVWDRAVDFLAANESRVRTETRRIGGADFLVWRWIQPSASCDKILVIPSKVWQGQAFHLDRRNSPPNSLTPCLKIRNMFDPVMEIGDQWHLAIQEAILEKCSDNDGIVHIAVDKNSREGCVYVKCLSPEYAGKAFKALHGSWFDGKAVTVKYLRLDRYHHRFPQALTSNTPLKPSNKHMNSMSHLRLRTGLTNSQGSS

[2] = biological target: T2, HA-MAN1 (full-length) W855A (human) (UniProt Q9Y2U8)
T2 sequence: T1 sequence with W855A, A860L

[3] = biological target: T3, HA-MAN1 (full-length) (human) (UniProt Q9Y2U8)
T3 sequence: T1 sequence with A860L

[4] = biological target: T4, HA-MAN1 (full-length) F770A (human) (UniProt Q9Y2U8)
T4 sequence: T1 sequence with F770A, A860L

## Flag-SMAD1E (full-length) (from UniProt Q15797-1 1-465)
[1]
  binding: no binding
[2]
  binding: no binding
[3]
  binding: binds
[4]
  binding: no binding
